Earlier results in patent US12370175B2, “Glucocorticoid receptor modulators to treat pancreatic cancer” (Corcept Therapeutics, Inc., priority 2016, dated 2025).
For at least one compound, name, drawing or mass did not settle the structure.

Test system: pancreatic cancer cell
Settings: Norman et al., J. Surg. Res. 1994; cited from earlier work

## C[C@@H]1C[C@H]2[C@@H]3CCC4=CC(=O)C=C[C@]4(C)[C@@]3(F)[C@@H](O)C[C@]2(C)[C@@]1(O)C(=O)CO [dexamethasone]
  effect on pancreatic cancer cell growth: inhibits pancreatic cancer cell growth
